Results from paper PMC10163288.
This is one part of the list.

B1: il2ra_site1_2b5i_normal_mot_HHH_b2_04910_000000118_0001_1_19_H_._HHH_b1_07294_af2_0001_0000100005_0000001_0_af2pred_0001_af2pred_1 (protein)
chain: SSSSSSSEAWELLQQANEAFRRGDDEEAEELLKEALKVAEEEGNKALLRSIRKALEQISSSSSSS
B2: il2ra_site1_2b5i_sap_9_mot_HHH_b1_00673_af2_000000168_0001_3_18_H_._HHH_b1_01635_0001_0000200006_0000001_0_0001_af2pred_dldesign_0_af2pred (protein)
chain: SSSSDEAILARAEELFAESSSLDEEAVRERLAELRALAEQAEDPTLRRYIERRVRMLERALSSSS
B3: il2ra_site2_3nfp_normal_mot_HHH_b1_01086_000000225_0001_20_36_H_._HHH_b1_01202_0001_0000300006_0000001_0_af2pred_0001_af2pred_swapped (protein)
chain: SSSSDHERFALRAALLEIEVAIEAGDEKKVEKLIERLEILIKRLNDEEMEELLRKLKEELSSSSS
B4: il2ra_site1_1z92_normal_mot_0a69b5c9b02373fb877a90f2b4b0d8e1_0001_1_af2_000000257_0001_17_32_H_._5511cb2176c827d1feb3066af2f534d5_0001_af2_0001_0000200009_00000 … (protein)
chain: PEELAEEARRLLENGNPEEAEKVLEKLAKESGSEEAFKRDLELAERWLGDPRRALLALIVALARD
B5: il2ra_site2_3nfp_sap_23_mot_HHH_b1_02422_000000114_0001_42_59_H_._d2b7c2924102c02e5b5e195002b33380_0001_1_0001_0000400028_0000001_0_0001 (protein)
chain: SSSSDEEERLEELIKELERLREEGDRVEAAEVLMELSELALEVGDREAVRVVLRYFRELQSSSSS
B6: il2ra_site2_2erj_normal_mot_HHH_b1_03609_af2_000000077_0001_42_55_H_._HHH_b1_06737_af2_0001_0000700011_0000001_0 (protein)
chain: SSSSSDEEKEEIEELIEEAKKIEDPEEAIEVLRRAAELAFELNDFELFSEIAELLRELAGSSSSS
B7: il2ra_site2_3nfp_normal_mot_HHH_b1_05627_af2_000000038_0001_43_56_H_._HHH_b2_07185_af2_0001_0000600046_0000001_1 (protein)
chain: SSSSSKAEEYLRIALELAKEAIEAGDPEAAKEILEAARLAAESLRDPEIQKEVEELLEELRSSSS
B8: il2ra_site2_3nfp_sap_23_mot_HHH_b2_05513_000000198_0001_20_37_H_._52c50354b804bec8c3157ba16786ada3_0001_0001_0000300006_0000001_0_0001 (protein)
chain: DAAEESIHAIRRKDEELSELLEEVLRLIKELKDPRLHLLLYEALLLIYRGNPEEAKKVLEEAAER
B9: il2ra_site1_2b5i_normal_mot_HHH_b1_04974_000000136_0001_1_18_H_._HHH_b1_00972_af2_0001_0000700037_0000001_0_af2pred_dldesign_0_af2pred (protein)
chain: SSSSSEVEDEADRLAREAARLRKEGKREEARKLLEKALELAKKANDEKLVAEIELLLSKLKSSSS
B10: il2ra_site2_2erj_sap_17_mot_cf89365494dbba80ae51c8475d1ce666_0001_af2_000000081_0001_35_48_H_._HHH_b2_08186_0001_0000400039_0000001_0_0001 (protein)
chain: SSSSSSSLLEEALEEIERLLEEGNSEEALRLAYKVAAELLSKDLELAREFFELAQELASSSSSSS
B11: il2ra_site2_2erj_normal_mot_HHH_b2_06080_000000063_0001_42_56_H_._HHH_b2_01714_0001_0001500014_0000001_0_af2pred_0001_1_af2pred_swapped (protein)
chain: SSSSDLEEVLRRLIEALSEGDEELIEELFELVEELAKKVPDRELRSEAERLLAFARSLLKKSSSS
B12: il2ra_site1_3nfp_sap_19_mot_119b7766384adbe86006a62bce89dba1_0001_af2_000000092_0001_18_32_H_._3633a07a64a68e62d76074d72b379c70_0001_1_af2_0001_0000100004_00000 … (protein)
chain: SSSSSAFEFLEREAKKAFERGDRRLLRLLLELIEKLLERMGNPKAEEVLEYIEELLRRLESSSSS
B13: il2ra_site1_2b5i_normal_mot_HHH_b1_01949_af2_000000041_0001_1_19_H_._HHH_b1_05336_af2_0001_0000200009_0000001_0_af2pred_0001_af2pred (protein)
chain: SSSSDEEERVFELFREASELFRNGNPEEARKVLEEALELARETGDPVAAKDLELFLELANSSSSS
B14: il2ra_site1_3nfp_normal_mot_HHH_b1_05523_000000027_0001_1_19_H_._HHH_b1_07881_af2_0001_0000800028_0000001_0_af2pred_0001_af2pred_1 (protein)
chain: SSSSSEELERVKELLEEALRLFKNGNPEEAKEVLEEALHLARENGSEHLRRFIEVALKLASSSSS
B15: il2ra_site2_3nfp_normal_mot_HHH_b2_02633_000000119_0001_1_18_H_._HHH_b2_00877_0001_0001000048_0000001_0_af2pred_0001_1_af2pred_swapped (protein)
chain: SSSSSSDLEELREELREAQEKGDEEEARKLVKELALLAIELGDHETFLEALEILEELSSSSSSSS
B16: il2ra_site1_3nfp_normal_mot_cc4219192d8ccd35c40e7b68f9a57604_0001_af2_000000124_0001_16_32_H_._HHH_b2_07250_0001_0001200014_0000001_0_af2pred_0001_af2pred_swapp … (protein)
chain: SSSSSALEWVEELAKKAFENNDKHELRALYKFLRESLEKNGDPEAEEVLKEVEELLRELQSSSSS
B17: il2ra_site1_3nfp_sap_19_mot_HHH_b1_06045_af2_000000189_0001_3_17_H_._HHH_b2_05942_af2_0001_0000100013_0000001_0_0001_af2pred_0001_af2pred_swapped (protein)
chain: DKIEKRLIEEALKLNSLRQLKKILEQLEKRLGDPEEAKELLRQLIEELLGDPEEAKEIVEEIERR
B18: il2ra_site1_3nfp_sap_14_mot_HHH_b1_01683_000000180_0001_19_35_H_._HHH_b2_07870_af2_0001_0000200011_0000001_0_0001 (protein)
chain: DWVHEAARLLDELARKLPPELVQLLYEVMHLVARGNPEEAEKVAEEILELLGDPELKELLELIRK

biological target: il2ra, P01589; experiment: yeast display titration

Apparent Kd, inactive:
B1 no binding seen
B2 no binding seen
B3 no binding seen
B4 no binding seen
B5 no binding seen
B6 no binding seen
B7 no binding seen
B8 no binding seen
B9 no binding seen
B10 no binding seen
B11 no binding seen
B12 no binding seen
B13 no binding seen
B14 no binding seen
B15 no binding seen
B16 no binding seen
B17 no binding seen
B18 no binding seen

Retrieved one by one from the list above:
Apparent Kd, inactive:
B16 no binding seen
B1 no binding seen
